PubChem BioAssay AID504764 | Drosophila RNAi Screening Center, 2011
The screen tested about 22,000 reagents; below is a random part of those that have a named target and a result. Over the whole deposit, 403 (1.9%) got an active call. 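Unnormalised raw counts per well; ratio z-scores behind the hit calls and whether each hit raises or lowers signal are not deposited.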 A number with no mark means an inactive call. Reagents against one gene are numbered here. A plus sign joins genes that one reagent is predicted to hit. Not given: the amount of reagent.

Screen: 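Genes whose knock-down alters Notch-dependent transcription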 (primary screen)
Cells: Drosophila Kc167 cells
Reagent: long dsRNA against Drosophila genes
Timing: about 5 days (4 days dsRNA, then 24 h after transfection)
Treatment: transfection of constitutively active membrane-tethered Notch lacking the extracellular domain, read 24 h later
Measured: 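Firefly luciferase from an E(spl)m3 reporter with active Notch, plus control-promoter and uninduced reporter wells for normalisation; unnormalised counts, duplicate wells a and b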
Reading the numbers: induced reporter light, run 1, well a and induced reporter light, run 1, well b: higher = more light from the Notch target reporter with active Notch; control promoter light, run 1, well a and control promoter light, run 1, well b: higher = more light from the viral control promoter (cell number, transfection, viability); uninduced reporter light, run 1, well a: higher = more light from the Notch target reporter without active Notch
Rule for the call: 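Wells with low control signal or poorly matching duplicates excluded; duplicates averaged; per source plate, z beyond ±2 for induced/control log2 ratio or beyond ±1.8 for induced/uninduced marks a hit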
Calls: active = modifier hit (raised or lowered Notch signal); inactive = not a hit

target gene	dsRNA no.	induced reporter light, run 1, well a	induced reporter light, run 1, well b	control promoter light, run 1, well a	control promoter light, run 1, well b	uninduced reporter light, run 1, well a
CG15890	1	89115	94280	1.10e5	1.12e5	14155
Ir52b (Ionotropic receptor 52b)	1	1.29e5	1.20e5	1.63e5	1.46e5	9640
CG17105	1	1.76e5	1.98e5	1.14e5	1.73e5	23420
CG17359	1	2.08e5	1.87e5	2.64e5	2.21e5	7065
CG14823	1	93175	98655	55620	24625	10640
CG18744	1	82755	70635	91045	70430	4932
Jhbp16 (Juvenile hormone binding protein 16)	1	2.07e5	1.92e5	2.02e5	2.13e5	13510
HisCl1 (Histamine-gated chloride channel subunit 1)	1	1.42e5	1.08e5	82200	91255	10115
Zasp52 (Z band alternatively spliced PDZ-motif protein 52)	1	96010	95640	85440	1.09e5	16700
Zasp52 (Z band alternatively spliced PDZ-motif protein 52)	2	73535	1.37e5	2.33e5	1.94e5	13500
CG8852	1	1.66e5	1.30e5	1.79e5	1.64e5	10155
CG13896	1	1.58e5	1.46e5	2.49e5	2.05e5	10088
Snoo (Sno oncogene)	1	1.08e5	1.37e5	1.33e5	1.51e5	8578
Snoo (Sno oncogene)	2	1.92e5	2.11e5	1.56e5	2.32e5	16100
Snoo (Sno oncogene)	3	1.55e5	1.55e5	98235	1.26e5	21745
CG6106	1	89215	91060	86505	77000	12185
CG9400	1	2.46e5	1.99e5	3.09e5	2.94e5	16455
CG3907	1	1.30e5	1.45e5	1.33e5	1.31e5	9640
pyx (pyrexia)	1	1.08e5	1.29e5	1.58e5	1.12e5	7235
pyx (pyrexia)	2	84140	97930	1.53e5	1.18e5	4588
CG32686	1	59660	81650	72965	70850	5210
CG18508	1	73295	75215	96625	1.34e5	6105
CG31717	1	1.71e5	1.61e5	1.88e5	1.50e5	10300
CG1812	1	2.02e5	1.50e5	1.28e5	1.10e5	10525
HDAC11 (Histone deacetylase 11)	1	1.57e5	1.45e5	1.70e5	1.58e5	11820
CG32055	1	95760	1.07e5	76100	27170	8270
pins (partner of inscuteable)	1	1.28e5	1.21e5	1.59e5	1.32e5	12450
CG15522	1	1.06e5	83580	1.34e5	1.52e5	7240
muskelin	1	1.01e5	87940	1.26e5	1.30e5	8282
CG32988	1	1.29e5	1.35e5	99475	1.13e5	22082
Lac (Lachesin)	1	2.29e5	1.39e5	1.81e5	1.81e5	15240
CG11470	1	1.33e5	1.17e5	1.98e5	1.92e5	9665
ari-2 (ariadne 2)	1	35790	33955	46530	55450	1982
Jon99Fii + Jon99Cii + Jon99Ciii + 1 more	1	1.30e5	1.30e5	1.77e5	1.99e5	12085
CG13138	1	1.03e5	1.25e5	65455	90385	15315
Sr-CIV (Scavenger receptor class C, type IV)	1	1.76e5	1.61e5	1.74e5	1.58e5	10495
CG15308	1	79440	97210	1.05e5	1.24e5	6295
CG18258	1	18140	16320	13282	8825	1438

Next part; the last 5 above are carried over.
target gene	dsRNA no.	induced reporter light, run 1, well a	induced reporter light, run 1, well b	control promoter light, run 1, well a	control promoter light, run 1, well b	uninduced reporter light, run 1, well a
Jon99Fii + Jon99Cii + Jon99Ciii + 1 more	1	1.30e5	1.30e5	1.77e5	1.99e5	12085
CG13138	1	1.03e5	1.25e5	65455	90385	15315
Sr-CIV (Scavenger receptor class C, type IV)	1	1.76e5	1.61e5	1.74e5	1.58e5	10495
CG15308	1	79440	97210	1.05e5	1.24e5	6295
CG18258	1	18140	16320	13282	8825	1438
Tak1 (TGF-beta activated kinase 1)	1	88735	97230	1.17e5	1.11e5	7945
Tak1 (TGF-beta activated kinase 1)	2	96540	1.03e5	96195	1.40e5	11215
Tak1 (TGF-beta activated kinase 1)	3	1.02e5	94705	1.09e5	1.69e5	12725
CG9312	1	1.39e5	1.43e5	1.12e5	80910	10500
B-H2 (BarH2)	1	3505	3050	3155	3295	4435
CG17560	1	3.03e5	3.41e5	2.66e5	2.85e5	23938
RpS5b (Ribosomal protein S5b)	1	1.98e5	2.27e5	2.08e5	1.95e5	16478
ppk12 (pickpocket 12)	1	2.74e5	2.47e5	2.80e5	2.71e5	20225
eIF2Bbeta (eukaryotic translation initiation factor 2B subunit beta)	1	1.12e5	1.19e5	1.78e5	1.85e5	6880
side-III (sidestep III)	1	52985	69130	55955	55550	6255
side-III (sidestep III)	2	22580	17555	11595	15695	5460
side-III (sidestep III)	3	1.14e5	1.43e5	1.42e5	96265	8790
CG31781 (retired record)	1	2.64e5	2.10e5	1.41e5	1.59e5	14985
CG31781 (retired record)	2	1.52e5	1.34e5	1.78e5	2.03e5	13345
CG14324	1	2.42e5	2.15e5	2.27e5	2.14e5	20738
CG14459	1	6365	4980	8505	8205	2488
CG13516	1	2.31e5	1.71e5	2.00e5	1.46e5	11515
Axud1 (AXIN1 up-regulated 1)	1	1.29e5	1.34e5	1.08e5	59025	10615
lncRNA:bxd (bithoraxoid)	1	96565	1.22e5	1.27e5	1.54e5	7125
nenya	1	2.19e5	2.21e5	2.30e5	2.26e5	16375
zye	1	1.08e5	86920	84285	73575	5215
CG10013	1	1.34e5	1.17e5	79575	87920	9420
CG32036	1	1.15e5	92895	83260	64040	8000
CG3557	1	1.65e5	1.91e5	1.94e5	2.13e5	11745
Reph (Regulator of eph expression)	1	84570 (active)	79590	67525	63680	4990
CG2260	1	2.63e5	2.04e5	3.38e5	2.84e5	14038
